From US20100255006A1 come the findings set out here.

Chains of the proteins cited; added tags and fusions are not shown. Residues count along the entry.
UniProt Q9ULZ3, residues 107-195: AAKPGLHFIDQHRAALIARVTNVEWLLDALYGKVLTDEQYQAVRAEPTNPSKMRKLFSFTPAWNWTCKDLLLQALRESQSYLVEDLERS

Results are given in words; binding and its absence hold for the method and conditions named. Some entries that bind do so weakly or less than the wild type.

This test concerns the target CARD of CARD-5 (mammalian two-hybrid construct) (UniProt Q9ULZ3). Description: mammalian two-hybrid in 293T cells, luciferase reporter. (In general: Reporter assays use an easily measured gene product as a stand-in for the process of interest.)

B1: CARD of CARD-12 (mammalian two-hybrid construct) (protein, UniProt Q9NPP4 1-88, looked up, not shown: large carriers)
chain: MNFIKDNSRALIQRMGMTVIKQITDDLFVWNVLNREEVNIICCEKVEQDAARGIIHMILKKGSESCNLFLKSLKEWNYPLFQDLNGQS
As for B1, the binding result was “binds”.
